Measured values from article PMC8185089.
These are yes or no findings as the source states them, for the method shown. Binding seen in cells or lysates may run through a third protein. These calls come from enrichment with a bait or labelling near it, and not all partners need be listed. For part of these data: No binding means not detected with the bait. For part of these data: Sequences can lack the tags named with a protein.

Protein sequences, listed by entry. Tags and fused reporters are not part of them. Lines headed by an entry give the natural chain unless they say otherwise; changes in a name come on top.
UniProt Q4F883: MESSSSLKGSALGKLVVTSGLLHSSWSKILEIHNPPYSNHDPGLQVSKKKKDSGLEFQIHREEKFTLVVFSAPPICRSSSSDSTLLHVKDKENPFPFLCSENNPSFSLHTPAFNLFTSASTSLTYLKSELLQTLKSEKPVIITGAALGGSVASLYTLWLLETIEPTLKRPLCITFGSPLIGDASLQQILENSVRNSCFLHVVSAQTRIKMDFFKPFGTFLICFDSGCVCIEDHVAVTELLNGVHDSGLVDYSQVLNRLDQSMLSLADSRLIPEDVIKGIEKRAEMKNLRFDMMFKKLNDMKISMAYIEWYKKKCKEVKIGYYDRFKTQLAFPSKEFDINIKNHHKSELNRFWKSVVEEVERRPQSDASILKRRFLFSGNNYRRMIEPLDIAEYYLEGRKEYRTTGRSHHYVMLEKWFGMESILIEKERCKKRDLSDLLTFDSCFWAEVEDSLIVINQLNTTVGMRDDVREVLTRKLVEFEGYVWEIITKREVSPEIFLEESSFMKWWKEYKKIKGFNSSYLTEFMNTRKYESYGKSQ
UniProt Q9LZ25: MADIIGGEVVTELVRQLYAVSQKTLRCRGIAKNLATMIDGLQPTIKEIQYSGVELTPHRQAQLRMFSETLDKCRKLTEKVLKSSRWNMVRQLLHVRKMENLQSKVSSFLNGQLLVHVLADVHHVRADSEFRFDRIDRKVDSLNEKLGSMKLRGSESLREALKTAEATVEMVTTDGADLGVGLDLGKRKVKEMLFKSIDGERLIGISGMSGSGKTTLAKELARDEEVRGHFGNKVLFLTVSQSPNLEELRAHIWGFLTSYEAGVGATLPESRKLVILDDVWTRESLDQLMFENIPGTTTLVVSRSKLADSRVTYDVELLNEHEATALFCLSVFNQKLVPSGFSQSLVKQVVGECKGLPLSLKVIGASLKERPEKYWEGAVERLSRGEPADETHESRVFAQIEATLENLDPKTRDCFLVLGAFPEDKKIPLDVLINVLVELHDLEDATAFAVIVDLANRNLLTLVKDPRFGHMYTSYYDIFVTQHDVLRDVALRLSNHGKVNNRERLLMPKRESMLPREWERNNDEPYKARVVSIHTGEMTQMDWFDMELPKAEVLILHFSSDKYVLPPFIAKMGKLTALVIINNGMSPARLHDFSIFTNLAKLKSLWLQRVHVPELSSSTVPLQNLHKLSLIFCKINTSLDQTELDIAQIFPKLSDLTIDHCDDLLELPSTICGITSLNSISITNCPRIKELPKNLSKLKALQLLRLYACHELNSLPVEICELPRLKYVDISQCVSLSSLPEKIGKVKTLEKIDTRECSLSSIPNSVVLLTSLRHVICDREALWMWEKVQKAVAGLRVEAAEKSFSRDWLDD
UniProt Q9FKZ1: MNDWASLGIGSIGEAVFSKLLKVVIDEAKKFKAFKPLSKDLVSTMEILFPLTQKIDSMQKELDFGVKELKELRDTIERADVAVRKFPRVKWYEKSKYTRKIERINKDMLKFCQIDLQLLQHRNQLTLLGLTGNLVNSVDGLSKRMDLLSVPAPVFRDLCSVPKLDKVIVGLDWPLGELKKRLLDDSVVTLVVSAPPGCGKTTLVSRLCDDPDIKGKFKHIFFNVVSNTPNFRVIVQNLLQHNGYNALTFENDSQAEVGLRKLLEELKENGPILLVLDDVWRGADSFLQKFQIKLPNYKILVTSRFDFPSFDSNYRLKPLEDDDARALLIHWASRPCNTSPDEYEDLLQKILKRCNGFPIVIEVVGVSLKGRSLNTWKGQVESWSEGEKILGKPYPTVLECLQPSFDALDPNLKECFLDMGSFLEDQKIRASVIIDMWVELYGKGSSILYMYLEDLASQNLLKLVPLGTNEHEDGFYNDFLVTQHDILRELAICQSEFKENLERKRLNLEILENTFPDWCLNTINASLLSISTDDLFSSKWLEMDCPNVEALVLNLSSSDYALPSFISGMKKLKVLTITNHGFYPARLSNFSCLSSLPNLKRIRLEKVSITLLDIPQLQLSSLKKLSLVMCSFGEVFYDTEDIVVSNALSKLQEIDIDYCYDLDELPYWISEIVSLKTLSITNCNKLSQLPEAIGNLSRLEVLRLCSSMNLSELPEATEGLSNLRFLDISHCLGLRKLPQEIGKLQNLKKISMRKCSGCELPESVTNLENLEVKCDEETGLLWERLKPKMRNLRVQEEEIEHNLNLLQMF
UniProt Q9FKZ0: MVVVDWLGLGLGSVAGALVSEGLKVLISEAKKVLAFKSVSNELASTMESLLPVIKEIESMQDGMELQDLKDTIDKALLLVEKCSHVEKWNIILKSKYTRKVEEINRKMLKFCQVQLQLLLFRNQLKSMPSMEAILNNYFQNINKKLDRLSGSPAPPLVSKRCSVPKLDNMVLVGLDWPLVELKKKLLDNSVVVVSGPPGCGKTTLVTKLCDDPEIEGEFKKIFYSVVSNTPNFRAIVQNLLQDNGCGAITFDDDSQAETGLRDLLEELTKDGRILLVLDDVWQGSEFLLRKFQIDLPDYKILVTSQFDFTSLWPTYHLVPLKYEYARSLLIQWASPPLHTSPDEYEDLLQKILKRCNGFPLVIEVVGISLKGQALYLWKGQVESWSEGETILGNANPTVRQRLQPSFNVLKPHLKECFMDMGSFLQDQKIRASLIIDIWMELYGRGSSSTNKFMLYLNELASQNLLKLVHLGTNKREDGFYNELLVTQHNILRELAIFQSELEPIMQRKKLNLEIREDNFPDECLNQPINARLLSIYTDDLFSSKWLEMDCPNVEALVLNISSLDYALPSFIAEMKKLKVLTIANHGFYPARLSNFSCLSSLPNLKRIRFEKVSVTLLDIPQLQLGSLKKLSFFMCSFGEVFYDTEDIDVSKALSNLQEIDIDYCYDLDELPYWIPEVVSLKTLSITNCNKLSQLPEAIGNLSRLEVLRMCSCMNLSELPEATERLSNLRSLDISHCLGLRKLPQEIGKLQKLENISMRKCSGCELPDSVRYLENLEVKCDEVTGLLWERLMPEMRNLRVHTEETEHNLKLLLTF

B1: EDS1A (native Col-0 EDS1 isoform) (protein, UniProt Q9SU72 1-623)
chain: MAFEALTGINGDLITRSWSASKQAYLTERYHKEEAGAVVIFAFQPSFSEKDFFDPDNKSSFGEIKLNRVQFPCMRKIGKGDVATVNEAFLKNLEAIIDPRTSFQASVEMAVRSRKQIVFTGHSSGGATAILATVWYLEKYFIRNPNVYLEPRCVTFGAPLVGDSIFSHALGREKWSRFFVNFVSRFDIVPRIMLARKASVEETLPHVLAQLDPRKSSVQESEQRITEFYTRVMRDTSTVANQAVCELTGSAEAFLETLSSFLELSPYRPAGTFVFSTEKRLVAVNNSDAILQMLFYTSQASDEQEWSLIPFRSIRDHHSYEELVQSMGKKLFNHLDGENSIESTLNDLGVSTRGRQYVQAALEEEKKRVENQKKIIQVIEQERFLKKLAWIEDEYKPKCQAHKNGYYDSFKVSNEENDFKANVKRAELAGVFDEVLGLMKKCQLPDEFEGDIDWIKLATRYRRLVEPLDIANYHRHLKNEDTGPYMKRGRPTRYIYAQRGYEHYILKPNGMIAEDVFWNKVNGLNLGLQLEEIQETLKNSGSECGSCFWAEVEELKGKPYEEVEVRVKTLEGMLGEWITDGEVDDKEIFLEGSTFRKWWITLPKNHKSHSPLRDYMMDEITDT
B2: EDS1B (native Col-0 EDS1 isoform) (protein, UniProt Q9SU71 1-629)
chain: MAFEALTGVNGDLVTISWMASKGANQTEHYLKEEVGGTVFFAFRASFSSEDLFATENTSPFGEIKMKRNQFPCMRSIGNDVDTTVNEAFLKSLEVLIGPRTSFHASVQSAVDRKQQVVFTGHSFGGATAILATVWYLETYFIRDAYAAPEPRCVTFGAPLVGDYIFKHALGRENWSRFFVNFVTRFDIVPRIMLARKTTIEQTLSYVLGKLDSTRAPIHESDQVITEFYTRVMRDTYTVASKAVCQLIGNGEAFLETLSSFYELSPYRPVGTFVFSTQKRLVVVNNSDAILQMLFYTCQSNDEQELSVIPFLSIRDHHGYEELVQSIGIKLLNHLDLHNPLLDGENSIGSALDDLGMSTRARQCIHAALEAEKQRVENQKKIETKRDQIVERLTWIVEVYKPKCQAHKNGYYDSFKDSNEENDFKANVKRVELAGIFDEVLGLVKKGQLPDGFEGSRGWINLATQYRRLIEPLDISNYHGQLKNEDTGPYMLHGRPSRYKYAQRGYEHDILKPTGMIAKDVFWSKVNGLNLGLQQDIQEILKNSGSECGSCFWAEVEELKGKPYEEVQVRFKTLEGLLEGWIKDGEVDEKEIFLEGSTFRKWWNTLPDSHKIHAPLYPRERMMDETRAT

Columns and labels:
[1] = target: T1, YFP-PAD4 (pPAD4:YFP-Linker-PAD4) (Arabidopsis thaliana) (UniProt Q9S745); assay: affinity purification with mass spectrometry; GFP-trap agarose IP of SAG101-YFP, YFP-PAD4 or YFP-SH from total soluble leaf extracts of Arabidopsis lines, 6 hpi with Pf0-1 avrRps4 (OD 0.2); 20 mM PIPES-KOH pH 7.0, 150 mM NaCl, 10 mM MgCl2, 1% Triton X-100, 4 °C; LC-MS, label-free quantification
T1 sequence: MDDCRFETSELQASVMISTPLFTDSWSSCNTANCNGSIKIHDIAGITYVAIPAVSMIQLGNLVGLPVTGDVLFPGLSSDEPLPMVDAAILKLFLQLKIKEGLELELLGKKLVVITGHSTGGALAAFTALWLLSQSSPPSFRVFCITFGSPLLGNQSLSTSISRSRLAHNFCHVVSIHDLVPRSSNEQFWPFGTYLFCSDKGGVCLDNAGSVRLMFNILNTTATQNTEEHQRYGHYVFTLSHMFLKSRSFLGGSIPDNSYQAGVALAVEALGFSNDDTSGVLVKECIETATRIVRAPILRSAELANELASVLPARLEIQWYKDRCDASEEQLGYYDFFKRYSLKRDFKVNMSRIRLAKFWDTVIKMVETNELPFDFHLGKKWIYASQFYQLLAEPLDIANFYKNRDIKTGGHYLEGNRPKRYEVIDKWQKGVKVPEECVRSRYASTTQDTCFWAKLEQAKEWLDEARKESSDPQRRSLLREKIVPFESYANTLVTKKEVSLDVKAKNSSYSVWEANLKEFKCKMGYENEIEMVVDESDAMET

[2] = target: SAG101-YFP (pSAG101:SAG101-YFP) (Arabidopsis thaliana) (UniProt Q4F883); assay: as above
[3] = target: SAG101-YFP (pSAG101:SAG101-YFP) (Arabidopsis thaliana) (UniProt Q4F883); assay: affinity purification with mass spectrometry

Molecule | binding [1] | binding [2] | binding [3]
ADR1-L2 (endogenous, Col) (from UniProt Q9LZ25) | binds | no binding | –
NRG1.1 (endogenous, Col) (from UniProt Q9FKZ1) | – | – | binds
NRG1.2 (endogenous, Col) (from UniProt Q9FKZ0) | no binding | binds | –
B1 | binds | binds | –
B2 | binds | binds | –
